Values of other authors as cited in PMC4718952, “A simple nonradioactive method for the determination of the binding affinities of antibodies induced by hapten bioconjugates for drugs of abuse” (Analytical and Bioanalytical Chemistry, 2015).

Tested on: plasma proteins
Conditions: neat plasma/sera; cited from earlier work

CN1CC[C@]23c4c5ccc(O)c4O[C@H]2[C@@H](O)C=C[C@H]3[C@H]1C5 [morphine]
plasma binding: ~35%
